Some entries share one result that the patent states for a list of compounds.
What was measured:
[1] = target: T1, H3 K9Me3 (FAM-QTAR-KMe3-STG-NH2) (Homo sapiens, UniProt P68431); experiment: Fluorescence anisotropy binding of A2B receptors to FAM-labeled histone 3 peptide; details: fluorescence anisotropy Kd, H3 K9Me3 vs H3 K9Me2
T1 construct: peptide consisting of residues 5-11 of histone 3 (H3 K9Men); made in house; host or cells: solid-phase chemical peptide synthesis
Procedure: Fluorescence anisotropy was used to measure the dissociation constant of rac- and meso-A2B to a peptide consisting of residues 5-11 of histone 3 (H3 K9Men), with each of the methylation states at Lys 9 as well as an N-terminal carboxyfluorescein (FAM) for fluorescence detection. Binding affinities for H3 K9Me3 were also confirmed by ITC (see below).
H3 K9Men: FAM-QTAR-KMen-STG-NH2, n=0-3
Fluorescence Anisotropy. Binding assays were performed with purified rac- or meso-A2B and fluorescein labeled histone 3 peptides. Assays were prepared in 384-well plates (Corning) with a total volume of 50 μL per well, containing 20 μM labeled peptide and increasing concentrations of A2B in buffer (10 mM phosphate pH 8.5). Plates were spun down and allowed to incubate for at least 30 minutes before analysis. Fluorescence anisotropy was measured on a PHERAstar (BMG Labtech) using FP485, 520A, and 520B filters at 27° C. The anisotropy data was plotted as a function A2B concentration and each plot was fitted in KaleidaGraph to the following equation (Wang, Y.; Killian, J.; Hamasaki, K.; Rando, R. R. Biochemistry 1996, 35, 12338-12346):
where r is fluorescence anisotropy, ro is the initial anisotropy value, r∞ is the maximum anisotropy value, a is the peptide concentration, x is the concentration of A2B, and kd is the dissociation constant. All measurements were taken in duplicate or triplicate.

Ac-K-G-NH2 (Lys) = experiment: Amplification in biased A2B dynamic combinatorial library (LC-MS); details: biased library A:B 2:1, 7.5 mM total; unmethylated Lys dipeptide template

Compound	Selectivity for H3 K9Me3 over its dimethylated counterpart [1]	Amplification in templated DCL, Lys guest (Ac-K-G-NH2 (Lys))
O=C(O)C1=C(C(=O)O)[C@@H]2c3ccc4cc3[C@H]1c1ccc(cc12)SSc1ccc2c(c1)[C@H]1C(C(=O)O)=C(C(=O)O)[C@@H]2c2cc(ccc21)SSc1cc(cc(C(=O)O)c1)SS4 [meso-A2B]	greater than 2 fold	less than 2 fold
O=C(O)C1=C(C(=O)O)C2c3ccc4cc3C1c1ccc(cc12)SSc1ccc2c(c1)C1C(C(=O)O)=C(C(=O)O)C2c2cc(ccc21)SSc1cc(cc(C(=O)O)c1)SS4 (racemic) [rac-A2B]	greater than 2 fold	less than 2 fold
